Experimental data from publication PMC8752655.
No constants are given. Whether binding was seen depends on the method and setting. Binding calls can cover weak binding; strength is not graded here.

Tests used:
[1] = target: T1, Rice G protein beta subunit 1 (rice) (UniProt Q40687); assay: two-hybrid; yeast two-hybrid; strength judged by growth in the dropout medium
T1 sequence: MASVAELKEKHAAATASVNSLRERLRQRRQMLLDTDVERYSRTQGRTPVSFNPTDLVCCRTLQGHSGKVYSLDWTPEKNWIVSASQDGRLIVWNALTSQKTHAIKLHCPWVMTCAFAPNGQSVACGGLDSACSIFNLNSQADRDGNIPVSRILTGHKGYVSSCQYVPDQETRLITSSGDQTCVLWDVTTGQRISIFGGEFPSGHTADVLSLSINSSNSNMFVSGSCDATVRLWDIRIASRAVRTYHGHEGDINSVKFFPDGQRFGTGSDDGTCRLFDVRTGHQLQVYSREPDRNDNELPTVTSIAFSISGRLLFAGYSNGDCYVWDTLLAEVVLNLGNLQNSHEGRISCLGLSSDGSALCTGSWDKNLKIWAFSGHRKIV

[2] = target: T1, Rice G protein beta subunit 1 (rice); assay: yeast three-hybrid; yeast three-hybrid; GS3.1 and RGB1 with GS3.2 as third protein

binding [1]: binds | binding [2]: binds
Substance: GS3.1 (rice)
